The data set is described as follows: Probe performance in Cedex Bio HT: Cys sensing in a feed medium. The following applies: feed medium DMT118F.01 with Cys. How it is done:
The rapid kinetic profile, stability and low background signal as obtained were encouraging to further use MF70 for Cys-sensing in Cedex Bio HT. Reagent solution was treated with various Cys-concentrations (0.5-7.6 mM) in a feed medium, which is used for monoclonal antibody production. […] Under these conditions, a reliable response was obtained over the period of one week (Table 5), with corresponding detection limit of 3.6 μM Cys, and limit of blank 2.2 μM Cys.

Consider `C=CC(=O)Oc1c(C)cc(/C=C/C2=[N+](CCCS(=O)(=O)O)c3ccc(S(=O)(=O)[O-])cc3C2(C)C)cc1C` [MF70], for which the Found runs as follows: (spiked Cys 0.5 mM) 0.64 mM; (spiked Cys 1.5 mM) 1.64 mM; (spiked Cys 3.0 mM) 3.03 mM; (spiked Cys 4.5 mM) 4.38 mM; (spiked Cys 6.0 mM) 5.83 mM.
